Record: PubChem BioAssay AID1259308 (NCATS, 2017)

Screen: 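Genes whose loss raises luciferase production in HEK293 cells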 (primary screen)
Cells: human HEK293 embryonic kidney cells stably expressing firefly luciferase (HEK-CMV-Luc2-Hygro)
Knock-down reagent: single siRNA against human genes, 0.8 pmol siRNA per well
Duration: 72 h
Measurement: 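Luciferase light (ONE-Glo) measured on one replicate plate set and viability (CellTiter-Glo) on the other, scaled to a negative control siRNA, with robust z-scores and luciferase per cell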
Direction: total luciferase, z-score: higher = more reporter protein produced
Rule for the call: 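An siRNA counts as active if its total luciferase robust z-score exceeds 3; genes with two or more such siRNAs out of three were retested with fresh siRNAs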
Calls: active = raised luciferase; inactive = no rise
The whole screen tested about 59,000 reagents; below is an unselected part. In the full data, about 1,510 (2.6%) are marked active. 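Calls use total luciferase alone and ignore viability, so some active siRNAs may act by altering cell number.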 A number with no mark means an inactive call. The numbers tell different reagents against one gene apart. Further read-outs or replicates are left out here. No sequences are given here.

AP4S1 (GeneID 11154) #1 scored total luciferase, z-score 2.18.
Depletion of AP4S1 (GeneID 11154) #2 resulted in: total luciferase, z-score -0.392.
Knock-down of AP4S1 (GeneID 11154) #3 resulted in: total luciferase, z-score 2.64.
HOGA1 (GeneID 112817) #1 showed total luciferase, z-score 0.448.
Against HOGA1 (GeneID 112817) #2, the values are total luciferase, z-score -0.46.
HOGA1 (GeneID 112817) #3 showed total luciferase, z-score -0.0151.
CSNK1G2 (GeneID 1455) #1 showed total luciferase, z-score -0.174.
Knock-down of CSNK1G2 (GeneID 1455) #2 came out at: total luciferase, z-score -1.74.
Against CSNK1G2 (GeneID 1455) #3, the values are total luciferase, z-score 0.194.
Silencing of ATG5 (GeneID 9474) #1 came out at: total luciferase, z-score 0.915.
Silencing of ATG5 (GeneID 9474) #2 came out at: total luciferase, z-score 0.345.
With knock-down of ATG5 (GeneID 9474) #3, the record shows total luciferase, z-score -0.256.

2 entries already listed, arranged by “total luciferase, z-score”, high to low.
AP4S1 (GeneID 11154) #3 | total luciferase, z-score: 2.64
AP4S1 (GeneID 11154) #2 | total luciferase, z-score: -0.392

More results follow.
HS6ST1P1 (GeneID 388605) #1 gave total luciferase, z-score 1.06.
For HS6ST1P1 (GeneID 388605) #2 the deposit lists total luciferase, z-score -0.425.
Knock-down of HS6ST1P1 (GeneID 388605) #3 gave: total luciferase, z-score 0.859.
Knock-down of HS6ST1P1 (GeneID 388605) #4 resulted in: total luciferase, z-score 0.443.
With knock-down of HS6ST1P1 (GeneID 388605) #5, the screen gave total luciferase, z-score -1.52.
Depletion of HS6ST1P1 (GeneID 388605) #6 resulted in: total luciferase, z-score 0.507.
RFC4 (GeneID 5984) #1 gave total luciferase, z-score 0.967.
After knock-down of RFC4 (GeneID 5984) #2, the record shows total luciferase, z-score -0.594.
Silencing of RFC4 (GeneID 5984) #3 resulted in: total luciferase, z-score 0.382.
With knock-down of TAFA5 (GeneID 25817) #1, the screen gave total luciferase, z-score -0.226.
After knock-down of TAFA5 (GeneID 25817) #2, the screen gave total luciferase, z-score 0.582.
Knock-down of TAFA5 (GeneID 25817) #3 gave: total luciferase, z-score -0.0991.
Against BHLHE40 (GeneID 8553) #1, the values are total luciferase, z-score 0.257.
BHLHE40 (GeneID 8553) #2 scored total luciferase, z-score -0.731.
BHLHE40 (GeneID 8553) #3 showed total luciferase, z-score 0.208.
Knock-down of ERCC4 (GeneID 2072) #1 resulted in: total luciferase, z-score 0.267.
With knock-down of ERCC4 (GeneID 2072) #2 the results were total luciferase, z-score 0.586.
ERCC4 (GeneID 2072) #3 scored total luciferase, z-score 1.03.
With knock-down of NDUFAF4 (GeneID 29078) #1, the record shows total luciferase, z-score -0.691.
Silencing of NDUFAF4 (GeneID 29078) #2 resulted in: total luciferase, z-score -0.47.
NDUFAF4 (GeneID 29078) #3 scored total luciferase, z-score -0.169.
